# Results taken from article doi:10.1101/2025.04.01.645927.
# The chains behind the UniProt entries cited, without tags or fusion partners.
# UniProt Q14160: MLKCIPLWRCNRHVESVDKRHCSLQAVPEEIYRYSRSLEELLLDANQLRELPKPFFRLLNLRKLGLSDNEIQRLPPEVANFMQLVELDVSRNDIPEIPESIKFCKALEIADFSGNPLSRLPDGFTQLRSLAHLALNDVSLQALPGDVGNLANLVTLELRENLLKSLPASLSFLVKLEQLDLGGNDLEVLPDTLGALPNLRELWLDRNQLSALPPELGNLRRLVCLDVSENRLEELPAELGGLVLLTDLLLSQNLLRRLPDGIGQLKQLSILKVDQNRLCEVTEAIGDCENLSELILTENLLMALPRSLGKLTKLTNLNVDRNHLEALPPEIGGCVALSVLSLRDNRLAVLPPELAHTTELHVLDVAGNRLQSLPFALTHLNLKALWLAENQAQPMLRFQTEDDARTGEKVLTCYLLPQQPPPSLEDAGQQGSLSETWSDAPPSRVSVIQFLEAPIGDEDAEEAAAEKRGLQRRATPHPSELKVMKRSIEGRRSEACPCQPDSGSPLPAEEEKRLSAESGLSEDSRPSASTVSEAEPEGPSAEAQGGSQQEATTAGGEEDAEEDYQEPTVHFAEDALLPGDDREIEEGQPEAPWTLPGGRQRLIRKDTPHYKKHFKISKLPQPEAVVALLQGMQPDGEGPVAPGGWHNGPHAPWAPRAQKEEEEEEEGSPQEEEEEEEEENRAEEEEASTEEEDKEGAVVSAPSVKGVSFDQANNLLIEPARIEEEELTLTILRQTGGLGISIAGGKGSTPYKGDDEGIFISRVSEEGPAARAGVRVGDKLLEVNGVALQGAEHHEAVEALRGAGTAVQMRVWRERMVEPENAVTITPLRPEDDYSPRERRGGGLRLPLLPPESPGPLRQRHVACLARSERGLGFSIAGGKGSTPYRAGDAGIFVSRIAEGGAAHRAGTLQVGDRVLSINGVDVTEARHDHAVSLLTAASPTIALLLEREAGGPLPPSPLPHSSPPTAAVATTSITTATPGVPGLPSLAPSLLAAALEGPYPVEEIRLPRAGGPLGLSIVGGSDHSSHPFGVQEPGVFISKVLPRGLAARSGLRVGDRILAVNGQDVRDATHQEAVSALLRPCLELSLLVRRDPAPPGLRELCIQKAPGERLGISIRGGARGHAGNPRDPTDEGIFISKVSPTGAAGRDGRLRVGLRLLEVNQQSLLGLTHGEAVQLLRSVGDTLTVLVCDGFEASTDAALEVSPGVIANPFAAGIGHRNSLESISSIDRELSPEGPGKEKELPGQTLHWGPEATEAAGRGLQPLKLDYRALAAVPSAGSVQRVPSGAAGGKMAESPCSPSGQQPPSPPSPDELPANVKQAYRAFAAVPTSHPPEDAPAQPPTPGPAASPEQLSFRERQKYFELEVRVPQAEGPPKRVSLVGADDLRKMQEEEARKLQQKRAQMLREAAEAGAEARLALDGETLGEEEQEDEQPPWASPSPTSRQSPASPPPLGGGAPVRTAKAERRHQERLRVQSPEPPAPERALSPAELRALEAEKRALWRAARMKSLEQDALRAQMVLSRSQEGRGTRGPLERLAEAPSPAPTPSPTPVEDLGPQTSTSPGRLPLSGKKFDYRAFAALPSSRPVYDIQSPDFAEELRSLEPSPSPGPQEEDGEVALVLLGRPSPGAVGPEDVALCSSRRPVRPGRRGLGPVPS
# UniProt Q8TDM6: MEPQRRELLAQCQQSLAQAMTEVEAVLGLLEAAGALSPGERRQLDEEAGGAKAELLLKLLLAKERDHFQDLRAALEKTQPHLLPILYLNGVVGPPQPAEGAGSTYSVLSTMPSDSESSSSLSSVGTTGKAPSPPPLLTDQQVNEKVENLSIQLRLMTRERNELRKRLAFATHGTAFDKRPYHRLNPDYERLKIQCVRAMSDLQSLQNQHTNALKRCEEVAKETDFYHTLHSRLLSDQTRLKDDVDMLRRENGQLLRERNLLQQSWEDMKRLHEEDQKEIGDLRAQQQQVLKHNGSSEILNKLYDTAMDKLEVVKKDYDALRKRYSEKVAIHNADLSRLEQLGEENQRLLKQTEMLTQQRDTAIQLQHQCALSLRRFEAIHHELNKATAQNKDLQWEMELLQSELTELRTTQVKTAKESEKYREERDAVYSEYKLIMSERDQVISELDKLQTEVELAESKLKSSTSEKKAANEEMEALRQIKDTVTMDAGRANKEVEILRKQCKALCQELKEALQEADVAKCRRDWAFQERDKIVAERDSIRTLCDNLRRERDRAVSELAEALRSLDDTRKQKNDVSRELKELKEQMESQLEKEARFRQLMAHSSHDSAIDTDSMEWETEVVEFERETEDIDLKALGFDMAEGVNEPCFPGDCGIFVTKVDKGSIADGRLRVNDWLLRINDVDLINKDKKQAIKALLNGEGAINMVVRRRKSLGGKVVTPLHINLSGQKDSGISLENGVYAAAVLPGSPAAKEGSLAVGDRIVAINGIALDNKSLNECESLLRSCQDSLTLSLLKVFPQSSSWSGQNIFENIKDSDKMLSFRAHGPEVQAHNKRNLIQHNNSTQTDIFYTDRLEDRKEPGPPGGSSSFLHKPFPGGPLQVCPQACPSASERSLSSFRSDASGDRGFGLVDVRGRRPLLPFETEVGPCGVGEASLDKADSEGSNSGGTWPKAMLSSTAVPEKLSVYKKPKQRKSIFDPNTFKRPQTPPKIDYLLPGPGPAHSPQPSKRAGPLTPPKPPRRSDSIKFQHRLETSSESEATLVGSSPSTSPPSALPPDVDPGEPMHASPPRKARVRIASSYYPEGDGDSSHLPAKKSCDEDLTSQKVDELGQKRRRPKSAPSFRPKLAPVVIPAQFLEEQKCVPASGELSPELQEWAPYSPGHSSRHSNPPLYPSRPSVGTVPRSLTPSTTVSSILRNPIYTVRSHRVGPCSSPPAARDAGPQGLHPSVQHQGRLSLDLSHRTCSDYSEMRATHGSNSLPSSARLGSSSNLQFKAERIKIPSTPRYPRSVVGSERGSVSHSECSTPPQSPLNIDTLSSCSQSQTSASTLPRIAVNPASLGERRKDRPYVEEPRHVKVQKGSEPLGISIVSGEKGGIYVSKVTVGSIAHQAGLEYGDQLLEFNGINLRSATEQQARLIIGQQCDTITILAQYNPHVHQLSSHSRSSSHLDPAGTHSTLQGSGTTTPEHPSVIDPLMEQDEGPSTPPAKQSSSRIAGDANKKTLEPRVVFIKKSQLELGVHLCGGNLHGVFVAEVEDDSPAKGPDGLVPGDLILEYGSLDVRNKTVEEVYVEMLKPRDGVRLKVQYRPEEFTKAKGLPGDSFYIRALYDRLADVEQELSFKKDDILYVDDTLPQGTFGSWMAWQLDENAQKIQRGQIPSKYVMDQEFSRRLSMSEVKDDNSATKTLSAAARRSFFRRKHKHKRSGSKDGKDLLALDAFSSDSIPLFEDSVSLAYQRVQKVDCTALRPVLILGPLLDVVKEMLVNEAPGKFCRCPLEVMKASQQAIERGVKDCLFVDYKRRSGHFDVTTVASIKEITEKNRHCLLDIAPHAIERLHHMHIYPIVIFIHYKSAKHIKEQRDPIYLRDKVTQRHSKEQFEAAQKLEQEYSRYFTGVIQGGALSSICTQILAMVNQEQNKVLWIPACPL
# UniProt P35221: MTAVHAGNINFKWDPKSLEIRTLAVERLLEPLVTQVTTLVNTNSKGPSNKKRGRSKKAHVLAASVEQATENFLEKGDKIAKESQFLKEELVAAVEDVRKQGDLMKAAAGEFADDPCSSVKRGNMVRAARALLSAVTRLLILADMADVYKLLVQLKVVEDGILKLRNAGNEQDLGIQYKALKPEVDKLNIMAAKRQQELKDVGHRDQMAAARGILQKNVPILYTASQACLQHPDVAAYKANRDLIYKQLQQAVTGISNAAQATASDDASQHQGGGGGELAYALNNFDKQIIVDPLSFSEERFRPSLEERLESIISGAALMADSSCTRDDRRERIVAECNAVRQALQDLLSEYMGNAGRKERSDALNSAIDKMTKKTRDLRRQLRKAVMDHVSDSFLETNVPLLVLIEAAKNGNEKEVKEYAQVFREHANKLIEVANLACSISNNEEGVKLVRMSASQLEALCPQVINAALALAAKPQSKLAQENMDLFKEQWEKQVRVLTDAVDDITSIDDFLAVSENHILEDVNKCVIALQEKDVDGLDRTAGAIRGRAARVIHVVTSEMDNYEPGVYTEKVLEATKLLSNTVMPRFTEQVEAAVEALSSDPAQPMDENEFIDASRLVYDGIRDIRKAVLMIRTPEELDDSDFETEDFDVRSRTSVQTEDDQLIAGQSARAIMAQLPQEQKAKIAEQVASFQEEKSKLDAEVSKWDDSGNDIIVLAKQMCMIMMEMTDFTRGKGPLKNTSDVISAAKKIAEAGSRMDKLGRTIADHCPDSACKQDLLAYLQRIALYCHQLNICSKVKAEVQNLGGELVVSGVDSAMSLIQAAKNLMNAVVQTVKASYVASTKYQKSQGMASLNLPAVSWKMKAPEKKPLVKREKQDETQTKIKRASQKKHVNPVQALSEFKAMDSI
# Read-outs that look alike come from different tables or passages of the source. Results are given in words; binding and its absence hold for the method and conditions named. Binding seen in cells or lysates may run through a third protein. A yes stands for co-enrichment or nearness to the bait. Other partners may have been found. Sequences can lack the tags named with a protein.
# T1: VE-cadherin-BioID (VE-cadherin tagged at the C-terminus with BirA* and an HA-tag) (human) (UniProt P33151)
# T1 sequence: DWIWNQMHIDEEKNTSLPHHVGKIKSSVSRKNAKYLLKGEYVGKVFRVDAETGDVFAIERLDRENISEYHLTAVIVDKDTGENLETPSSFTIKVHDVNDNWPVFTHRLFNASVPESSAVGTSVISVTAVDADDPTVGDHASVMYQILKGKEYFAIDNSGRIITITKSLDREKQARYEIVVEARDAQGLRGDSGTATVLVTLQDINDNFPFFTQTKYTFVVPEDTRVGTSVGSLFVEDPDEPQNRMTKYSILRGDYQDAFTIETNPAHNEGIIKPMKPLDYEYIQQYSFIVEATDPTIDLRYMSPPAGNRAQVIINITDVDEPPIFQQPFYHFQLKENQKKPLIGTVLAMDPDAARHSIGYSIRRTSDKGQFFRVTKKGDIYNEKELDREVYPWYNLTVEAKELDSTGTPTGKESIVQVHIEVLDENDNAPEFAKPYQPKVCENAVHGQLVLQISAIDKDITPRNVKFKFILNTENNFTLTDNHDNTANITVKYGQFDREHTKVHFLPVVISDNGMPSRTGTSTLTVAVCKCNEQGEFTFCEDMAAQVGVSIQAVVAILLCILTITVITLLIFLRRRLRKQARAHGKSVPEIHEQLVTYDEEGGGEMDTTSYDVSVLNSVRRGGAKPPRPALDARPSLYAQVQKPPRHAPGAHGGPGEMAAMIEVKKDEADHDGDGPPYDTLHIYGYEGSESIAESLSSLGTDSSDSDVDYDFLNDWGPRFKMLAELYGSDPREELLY
# T2: VE-cadherin-BioID (VE-cadherin tagged at the C-terminus with BirA* and an HA-tag) (human), P33151
# T2 chain: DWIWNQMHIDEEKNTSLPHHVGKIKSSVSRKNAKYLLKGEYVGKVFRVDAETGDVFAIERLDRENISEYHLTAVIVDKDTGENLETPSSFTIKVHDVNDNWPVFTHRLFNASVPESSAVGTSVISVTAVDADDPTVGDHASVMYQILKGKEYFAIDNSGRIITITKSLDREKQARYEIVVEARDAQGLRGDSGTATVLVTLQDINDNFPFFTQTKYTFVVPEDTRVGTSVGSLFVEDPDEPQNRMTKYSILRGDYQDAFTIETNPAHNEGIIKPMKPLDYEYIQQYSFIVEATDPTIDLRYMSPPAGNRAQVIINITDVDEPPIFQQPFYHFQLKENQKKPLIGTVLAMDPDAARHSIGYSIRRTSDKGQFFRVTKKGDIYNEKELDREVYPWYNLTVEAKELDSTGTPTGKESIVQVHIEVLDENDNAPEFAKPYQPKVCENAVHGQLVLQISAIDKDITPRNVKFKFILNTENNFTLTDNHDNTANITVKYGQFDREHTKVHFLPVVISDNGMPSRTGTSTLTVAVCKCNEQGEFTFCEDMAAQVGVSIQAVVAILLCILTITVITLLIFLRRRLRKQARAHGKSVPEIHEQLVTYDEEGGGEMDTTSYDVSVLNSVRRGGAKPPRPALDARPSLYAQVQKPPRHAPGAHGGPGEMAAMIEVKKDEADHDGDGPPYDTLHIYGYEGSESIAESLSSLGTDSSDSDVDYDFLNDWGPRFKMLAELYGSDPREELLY
# Key:
# Experiment in all cases: proximity labelling
# [1] = target: T1, VE-cadherin-BioID (VE-cadherin tagged at the C-terminus with BirA* and an HA-tag) (human)
# [2] = target: T1, VE-cadherin-BioID (VE-cadherin tagged at the C-terminus with BirA* and an HA-tag) (human); remark: listed apart in the source
# [3] = target: T2, VE-cadherin-BioID (VE-cadherin tagged …); details: remark: other sources report otherwise
Molecule,binding [1],binding [2],binding [3]
Scribble (Scrib) (from UniProt Q14160 1-1655),binds,binds,–
Disks large 5 (DLG5) (from UniProt Q8TDM6 1-1919),–,binds,–
α-catenin (from UniProt P35221 1-906),–,binds,–
"β-catenin, P35222 1-781 (protein) MATQADLMELDMAMEPDRKAAVSHWQQQSYLDSGIHSGATTTAPSLSGKGNPEEEDVDTSQVLYEWEQGFSQSFTQEQVADIDGQYAMTRAQRVRAAMFPETLDEGMQIPSTQFDAAHPTNVQRLAEPSQMLKHAVVNLINYQDDAELATRAIPELTKLLNDEDQVVVNKAAVMVHQLSKKEASRHAIMRSPQMVSAIVRTMQNTNDVETARCTAGTLHNLSHHREGLLAIFKSGGIPALVKMLGSPVDSVLFYAITTLHNLLLHQEGAKMAVRLAGGLQKMVALLNKTNVKFLAITTDCLQILAYGNQESKLIILASGGPQALVNIMRTYTYEKLLWTTSRVLKVLSVCSSNKPAIVEAGGMQALGLHLTDPSQRLVQNCLWTLRNLSDAATKQEGMEGLLGTLVQLLGSDDINVVTCAAGILSNLTCNNYKNKMMVCQVGGIEALVRTVLRAGDREDITEPAICALRHLTSRHQEAEMAQNAVRLHYGLPVVVKLLHPPSHWPLIKATVGLIRNLALCPANHAPLREQGAIPRLVQLLVRAHQDTQRRTSMGGTQQQFVEGVRMEEIVEGCTGALHILARDVHNRIVIRGLNTIPLFVQLLYSPIENIQRVAAGVLCELAQDKEAAEAIEAEGATAPLTELLHSRNEGVATYAAAVLFRMSEDKPQDYKKRLSVELTSSLFRTEPMAWNETADLGLDIGAQGEPLGYRQDDPSYRSFHSGGYGQDALGMDPMMEHEMGGHHPGADYPVDGLPDLGHAQDLMDGLPPGDSNQLAWFDTDL",–,–,binds
"junction plakoglobin (protein, UniProt P14923 1-745) MEVMNLMEQPIKVTEWQQTYTYDSGIHSGANTCVPSVSSKGIMEEDEACGRQYTLKKTTTYTQGVPPSQGDLEYQMSTTARAKRVREAMCPGVSGEDSSLLLATQVEGQATNLQRLAEPSQLLKSAIVHLINYQDDAELATRALPELTKLLNDEDPVVVTKAAMIVNQLSKKEASRRALMGSPQLVAAVVRTMQNTSDLDTARCTTSILHNLSHHREGLLAIFKSGGIPALVRMLSSPVESVLFYAITTLHNLLLYQEGAKMAVRLADGLQKMVPLLNKNNPKFLAITTDCLQLLAYGNQESKLIILANGGPQALVQIMRNYSYEKLLWTTSRVLKVLSVCPSNKPAIVEAGGMQALGKHLTSNSPRLVQNCLWTLRNLSDVATKQEGLESVLKILVNQLSVDDVNVLTCATGTLSNLTCNNSKNKTLVTQNSGVEALIHAILRAGDKDDITEPAVCALRHLTSRHPEAEMAQNSVRLNYGIPAIVKLLNQPNQWPLVKATIGLIRNLALCPANHAPLQEAAVIPRLVQLLVKAHQDAQRHVAAGTQQPYTDGVRMEEIVEGCTGALHILARDPMNRMEIFRLNTIPLFVQLLYSSVENIQRVAAGVLCELAQDKEAADAIDAEGASAPLMELLHSRNEGTATYAAAVLFRISEDKNPDYRKRVSVELTNSLFKHDPAAWEAAQSMIPINEPYGDDMDATYRPMYSSDVPLDPLEMHMDMDGDYPIDTYSDGLRPPYPTADHMLA",–,binds,–
"p120 catenin (protein, UniProt O60716 1-968) MDDSEVESTASILASVKEQEAQFEKLTRALEEERRHVSAQLERVRVSPQDANPLMANGTLTRRHQNGRFVGDADLERQKFSDLKLNGPQDHSHLLYSTIPRMQEPGQIVETYTEEDPEGAMSVVSVETSDDGTTRRTETTVKKVVKTVTTRTVQPVAMGPDGLPVDASSVSNNYIQTLGRDFRKNGNGGPGPYVGQAGTATLPRNFHYPPDGYSRHYEDGYPGGSDNYGSLSRVTRIEERYRPSMEGYRAPSRQDVYGPQPQVRVGGSSVDLHRFHPEPYGLEDDQRSMGYDDLDYGMMSDYGTARRTGTPSDPRRRLRSYEDMIGEEVPSDQYYWAPLAQHERGSLASLDSLRKGGPPPPNWRQPELPEVIAMLGFRLDAVKSNAAAYLQHLCYRNDKVKTDVRKLKGIPVLVGLLDHPKKEVHLGACGALKNISFGRDQDNKIAIKNCDGVPALVRLLRKARDMDLTEVITGTLWNLSSHDSIKMEIVDHALHALTDEVIIPHSGWEREPNEDCKPRHIEWESVLTNTAGCLRNVSSERSEARRKLRECDGLVDALIFIVQAEIGQKDSDSKLVENCVCLLRNLSYQVHREIPQAERYQEAAPNVANNTGPHAASCFGAKKGKDEWFSRGKKPIEDPANDTVDFPKRTSPARGYELLFQPEVVRIYISLLKESKTPAILEASAGAIQNLCAGRWTYGRYIRSALRQEKALSAIADLLTNEHERVVKAASGALRNLAVDARNKELIGKHAIPNLVKNLPGGQQNSSWNFSEDTVISILNTINEVIAENLEAAKKLRETQGIEKLVLINKSGNRSEKEVRAAALVLQTIWGYKELRKPLEKEGWKKSDFQVNLNNASRSQSSHSYDDSTLPLIDRNQKSDKKPDREEIQMSNMGSNTKSLDNNYSTPNERGDHNRTLDRSGDLGDMEPLKGTTPLMQDEGQESLEEELDVLVLDDEGGQVSYPSMQKI",–,binds,–
